Experimental data reported in publication PMC4880925 (Scientific Reports, 2016).
No constants are given. Whether binding was seen depends on the method and setting. Sequences can lack the tags named with a protein.

Molecular target: CYP144A1-FLV (full-length 434 amino acid version of Mycobacterium tuberculosis cytochrome P450 CYP144A1) (Mycobacterium tuberculosis H37Rv) (UniProt P9WPL1)
Assay: SEC-MALS; both purified

B1: CYP144A1-FLV (full-length 434 amino acid version of Mycobacterium tuberculosis cytochrome P450 CYP144A1) (enzyme, UniProt P9WPL1 1-434)
chain: MRRSPKGSPGAVLDLQRRVDQAVSADHAELMTIAKDANTFFGAESVQDPYPLYERMRAAGSVHRIANSDFYAVCGWDAVNEAIGRPEDFSSNLTATMTYTAEGTAKPFEMDPLGGPTHVLATADDPAHAVHRKLVLRHLAAKRIRVMEQFTVQAADRLWVDGMQDGCIEWMGAMANRLPMMVVAELIGLPDPDIAQLVKWGYAATQLLEGLVENDQLVAAGVALMELSGYIFEQFDRAAADPRDNLLGELATACASGELDTLTAQVMMVTLFAAGGESTAALLGSAVWILATRPDIQQQVRANPELLGAFIEETLRYEPPFRGHYRHVRNATTLDGTELPADSHLLLLWGAANRDPAQFEAPGEFRLDRAGGKGHISFGKGAHFCVGAALARLEARIVLRLLLDRTSVIEAADVGGWLPSILVRRIERLELAVQ
binding: no binding (tested: 2 mg/ml)
